System: Mycobacterium tuberculosis H37Rv (rif-resistant)
Assay: microbe, parasite or virus in culture
Assay type: cell-based
Conditions: read-out: MIC Mycobacterium tuberculosis H37Rv (rif-resistant)

Work on CO[C@H]1/C=C/O[C@@]2(C)Oc3c(C)c(O)c4c(O)c(c(/C=N/N5CCN(C)CC5)c(O)c4c3C2=O)NC(=O)/C(C)=C\C=C\[C@H](C)[C@H](O)[C@@H](C)[C@@H](O)[C@@H](C)[C@H](OC(C)=O)[C@@H]1C [rifampin, reference compound] yielded an MIC of over 32 µg/mL.
